Results published in the supplement of paper PMC10849652.
The other results are listed elsewhere or left out.

The chains behind the UniProt entries cited, without tags or fusion partners. Where a name states a change or a piece, a line headed by the entry shows the natural chain unless it says otherwise.
UniProt P17812: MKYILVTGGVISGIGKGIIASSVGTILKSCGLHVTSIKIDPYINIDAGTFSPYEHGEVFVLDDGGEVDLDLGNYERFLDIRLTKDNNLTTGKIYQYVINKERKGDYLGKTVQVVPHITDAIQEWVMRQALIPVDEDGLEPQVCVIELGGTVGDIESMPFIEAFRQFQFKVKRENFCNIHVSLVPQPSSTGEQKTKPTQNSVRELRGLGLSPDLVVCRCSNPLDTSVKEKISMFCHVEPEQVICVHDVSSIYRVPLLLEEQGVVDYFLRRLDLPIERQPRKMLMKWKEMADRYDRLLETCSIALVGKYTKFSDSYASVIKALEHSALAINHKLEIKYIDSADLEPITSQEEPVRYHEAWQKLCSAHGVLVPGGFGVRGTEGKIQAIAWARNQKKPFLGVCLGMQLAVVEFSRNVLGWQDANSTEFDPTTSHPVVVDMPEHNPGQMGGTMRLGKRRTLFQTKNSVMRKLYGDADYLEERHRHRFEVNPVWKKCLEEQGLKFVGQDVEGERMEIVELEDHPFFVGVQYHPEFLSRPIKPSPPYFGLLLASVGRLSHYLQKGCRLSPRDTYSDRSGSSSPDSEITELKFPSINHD
UniProt P27707: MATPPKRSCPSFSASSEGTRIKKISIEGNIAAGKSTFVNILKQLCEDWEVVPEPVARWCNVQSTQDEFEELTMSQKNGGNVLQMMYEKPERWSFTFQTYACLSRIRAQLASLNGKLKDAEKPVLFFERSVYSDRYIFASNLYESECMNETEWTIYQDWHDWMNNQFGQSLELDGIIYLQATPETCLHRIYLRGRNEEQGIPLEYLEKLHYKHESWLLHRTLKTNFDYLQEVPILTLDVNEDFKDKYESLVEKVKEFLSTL
UniProt P61962: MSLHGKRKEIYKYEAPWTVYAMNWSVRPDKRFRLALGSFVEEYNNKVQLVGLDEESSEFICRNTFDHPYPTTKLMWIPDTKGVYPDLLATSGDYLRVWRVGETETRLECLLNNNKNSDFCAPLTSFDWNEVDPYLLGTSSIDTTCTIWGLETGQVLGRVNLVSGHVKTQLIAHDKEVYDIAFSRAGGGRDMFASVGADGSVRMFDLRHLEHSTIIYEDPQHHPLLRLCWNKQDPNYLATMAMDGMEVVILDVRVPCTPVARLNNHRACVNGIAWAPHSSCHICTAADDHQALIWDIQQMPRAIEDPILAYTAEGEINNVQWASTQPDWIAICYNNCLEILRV
UniProt O95196: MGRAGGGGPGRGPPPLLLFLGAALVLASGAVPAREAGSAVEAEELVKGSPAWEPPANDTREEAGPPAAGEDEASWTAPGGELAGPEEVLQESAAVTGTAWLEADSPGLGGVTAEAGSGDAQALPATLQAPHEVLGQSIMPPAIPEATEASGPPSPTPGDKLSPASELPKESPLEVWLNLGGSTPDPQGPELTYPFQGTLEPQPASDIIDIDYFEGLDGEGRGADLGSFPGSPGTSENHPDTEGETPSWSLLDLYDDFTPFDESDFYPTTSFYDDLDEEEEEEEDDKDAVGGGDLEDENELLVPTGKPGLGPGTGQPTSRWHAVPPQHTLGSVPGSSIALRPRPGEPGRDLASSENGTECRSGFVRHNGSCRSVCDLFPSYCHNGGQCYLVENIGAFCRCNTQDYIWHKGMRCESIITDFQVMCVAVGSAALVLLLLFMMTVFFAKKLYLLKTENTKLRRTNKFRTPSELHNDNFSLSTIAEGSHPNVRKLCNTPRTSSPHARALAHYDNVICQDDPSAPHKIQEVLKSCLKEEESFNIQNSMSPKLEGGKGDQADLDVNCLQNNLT
UniProt Q9NPI6: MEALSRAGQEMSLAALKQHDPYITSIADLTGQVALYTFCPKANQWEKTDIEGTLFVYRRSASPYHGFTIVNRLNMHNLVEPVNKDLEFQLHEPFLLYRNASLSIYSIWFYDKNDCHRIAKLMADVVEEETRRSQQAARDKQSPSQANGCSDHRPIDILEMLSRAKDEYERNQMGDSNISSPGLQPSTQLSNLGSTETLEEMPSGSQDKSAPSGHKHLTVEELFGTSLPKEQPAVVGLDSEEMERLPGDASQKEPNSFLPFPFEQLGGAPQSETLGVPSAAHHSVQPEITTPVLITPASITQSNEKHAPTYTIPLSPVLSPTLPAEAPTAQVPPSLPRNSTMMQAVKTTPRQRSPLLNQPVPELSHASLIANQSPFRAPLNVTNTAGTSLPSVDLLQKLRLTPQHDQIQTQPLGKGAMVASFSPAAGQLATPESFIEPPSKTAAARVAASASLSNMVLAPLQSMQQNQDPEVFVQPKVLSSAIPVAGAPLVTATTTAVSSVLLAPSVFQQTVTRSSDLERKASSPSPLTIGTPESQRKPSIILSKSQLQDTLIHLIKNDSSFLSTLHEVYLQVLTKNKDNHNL
UniProt P01034: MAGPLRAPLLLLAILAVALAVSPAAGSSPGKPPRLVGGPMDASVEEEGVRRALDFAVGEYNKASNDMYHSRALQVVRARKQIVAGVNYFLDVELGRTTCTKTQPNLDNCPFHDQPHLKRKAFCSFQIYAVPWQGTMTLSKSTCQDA
UniProt P00167, whole entry, looked up: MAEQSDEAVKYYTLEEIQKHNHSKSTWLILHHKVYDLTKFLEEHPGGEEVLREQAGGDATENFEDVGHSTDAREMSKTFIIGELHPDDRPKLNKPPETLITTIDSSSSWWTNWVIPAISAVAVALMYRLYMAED
UniProt Q96F07, whole entry, looked up: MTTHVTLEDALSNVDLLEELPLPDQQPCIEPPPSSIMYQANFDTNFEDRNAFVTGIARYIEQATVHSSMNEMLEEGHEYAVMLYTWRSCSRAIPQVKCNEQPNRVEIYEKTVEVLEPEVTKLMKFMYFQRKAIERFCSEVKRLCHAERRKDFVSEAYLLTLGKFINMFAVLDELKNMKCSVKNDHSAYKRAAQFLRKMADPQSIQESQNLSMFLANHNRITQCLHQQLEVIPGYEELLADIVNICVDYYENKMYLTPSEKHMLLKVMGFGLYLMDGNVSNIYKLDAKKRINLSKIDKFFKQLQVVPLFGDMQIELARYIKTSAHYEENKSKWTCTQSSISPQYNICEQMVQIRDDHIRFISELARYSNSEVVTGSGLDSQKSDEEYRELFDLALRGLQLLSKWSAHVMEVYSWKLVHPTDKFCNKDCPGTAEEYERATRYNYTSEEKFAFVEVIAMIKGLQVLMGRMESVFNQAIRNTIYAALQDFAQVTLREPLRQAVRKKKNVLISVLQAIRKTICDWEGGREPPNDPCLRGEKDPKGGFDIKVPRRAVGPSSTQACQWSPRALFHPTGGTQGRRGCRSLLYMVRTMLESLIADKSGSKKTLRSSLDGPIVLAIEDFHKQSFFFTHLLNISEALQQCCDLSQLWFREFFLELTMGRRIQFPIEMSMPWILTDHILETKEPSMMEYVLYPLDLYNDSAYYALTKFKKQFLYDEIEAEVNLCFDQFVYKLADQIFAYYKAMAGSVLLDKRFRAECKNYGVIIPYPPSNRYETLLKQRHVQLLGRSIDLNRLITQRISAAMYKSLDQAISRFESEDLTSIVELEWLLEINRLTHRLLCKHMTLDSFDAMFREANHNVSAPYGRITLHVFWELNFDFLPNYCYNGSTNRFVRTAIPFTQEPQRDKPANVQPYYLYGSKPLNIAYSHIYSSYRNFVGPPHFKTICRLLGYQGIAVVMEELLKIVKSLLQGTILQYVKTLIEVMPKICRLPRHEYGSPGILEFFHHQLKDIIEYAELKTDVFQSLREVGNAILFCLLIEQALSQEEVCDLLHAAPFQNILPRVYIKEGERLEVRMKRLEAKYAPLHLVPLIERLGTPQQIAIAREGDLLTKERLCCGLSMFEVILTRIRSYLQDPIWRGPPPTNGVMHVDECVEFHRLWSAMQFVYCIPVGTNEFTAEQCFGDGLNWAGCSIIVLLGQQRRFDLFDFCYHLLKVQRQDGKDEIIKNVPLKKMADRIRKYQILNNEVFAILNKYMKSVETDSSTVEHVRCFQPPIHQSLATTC
UniProt Q6VVX0: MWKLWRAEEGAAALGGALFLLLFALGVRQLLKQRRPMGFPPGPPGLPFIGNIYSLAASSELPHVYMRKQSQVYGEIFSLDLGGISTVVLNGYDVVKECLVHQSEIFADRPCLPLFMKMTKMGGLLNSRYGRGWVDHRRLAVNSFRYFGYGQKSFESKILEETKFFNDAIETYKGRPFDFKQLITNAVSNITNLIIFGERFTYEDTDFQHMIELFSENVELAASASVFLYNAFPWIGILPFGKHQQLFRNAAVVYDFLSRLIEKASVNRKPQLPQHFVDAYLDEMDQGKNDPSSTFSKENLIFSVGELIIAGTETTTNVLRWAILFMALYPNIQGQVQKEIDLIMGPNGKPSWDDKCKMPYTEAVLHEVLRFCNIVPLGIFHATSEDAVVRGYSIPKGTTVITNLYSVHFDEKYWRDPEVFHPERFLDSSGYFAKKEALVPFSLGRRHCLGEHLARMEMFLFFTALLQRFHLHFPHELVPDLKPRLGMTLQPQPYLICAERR
UniProt Q9H1C7: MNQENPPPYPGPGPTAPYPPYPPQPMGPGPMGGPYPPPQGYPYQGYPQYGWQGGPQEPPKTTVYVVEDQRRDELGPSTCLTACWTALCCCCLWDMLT
UniProt P50461: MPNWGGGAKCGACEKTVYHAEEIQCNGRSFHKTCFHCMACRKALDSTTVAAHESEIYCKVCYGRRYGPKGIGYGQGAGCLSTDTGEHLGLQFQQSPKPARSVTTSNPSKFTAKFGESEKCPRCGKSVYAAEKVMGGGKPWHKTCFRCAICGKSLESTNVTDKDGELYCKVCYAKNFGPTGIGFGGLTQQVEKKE
UniProt Q9NXE8: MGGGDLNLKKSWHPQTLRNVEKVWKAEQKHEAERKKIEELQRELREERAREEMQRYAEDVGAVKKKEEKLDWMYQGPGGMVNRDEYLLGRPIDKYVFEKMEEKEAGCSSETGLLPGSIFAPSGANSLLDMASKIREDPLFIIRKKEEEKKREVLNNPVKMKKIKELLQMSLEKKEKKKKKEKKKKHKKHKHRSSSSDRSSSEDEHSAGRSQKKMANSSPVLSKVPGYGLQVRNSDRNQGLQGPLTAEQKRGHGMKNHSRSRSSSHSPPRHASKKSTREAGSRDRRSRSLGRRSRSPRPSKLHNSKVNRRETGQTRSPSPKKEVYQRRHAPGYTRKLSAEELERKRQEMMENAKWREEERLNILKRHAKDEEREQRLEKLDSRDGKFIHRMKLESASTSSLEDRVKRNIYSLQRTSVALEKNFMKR
UniProt Q8NCG7: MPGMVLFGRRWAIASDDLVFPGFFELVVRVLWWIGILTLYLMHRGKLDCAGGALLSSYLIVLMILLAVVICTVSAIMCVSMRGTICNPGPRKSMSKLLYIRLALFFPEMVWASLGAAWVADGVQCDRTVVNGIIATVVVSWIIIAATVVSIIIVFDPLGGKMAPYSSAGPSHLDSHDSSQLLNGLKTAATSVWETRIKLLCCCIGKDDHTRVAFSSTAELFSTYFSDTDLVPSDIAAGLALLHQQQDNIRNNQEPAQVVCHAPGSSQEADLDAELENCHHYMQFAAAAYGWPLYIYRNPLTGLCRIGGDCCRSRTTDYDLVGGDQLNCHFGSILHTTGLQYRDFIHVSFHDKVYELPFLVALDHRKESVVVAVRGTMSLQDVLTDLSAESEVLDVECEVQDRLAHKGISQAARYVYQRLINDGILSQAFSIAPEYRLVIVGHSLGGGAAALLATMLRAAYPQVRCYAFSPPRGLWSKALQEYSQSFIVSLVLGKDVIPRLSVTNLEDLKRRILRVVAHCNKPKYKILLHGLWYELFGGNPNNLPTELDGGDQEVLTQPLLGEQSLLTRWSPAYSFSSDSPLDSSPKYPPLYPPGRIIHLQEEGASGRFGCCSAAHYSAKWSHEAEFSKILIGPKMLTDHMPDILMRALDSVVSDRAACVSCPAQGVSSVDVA
UniProt Q93034, whole entry, looked up: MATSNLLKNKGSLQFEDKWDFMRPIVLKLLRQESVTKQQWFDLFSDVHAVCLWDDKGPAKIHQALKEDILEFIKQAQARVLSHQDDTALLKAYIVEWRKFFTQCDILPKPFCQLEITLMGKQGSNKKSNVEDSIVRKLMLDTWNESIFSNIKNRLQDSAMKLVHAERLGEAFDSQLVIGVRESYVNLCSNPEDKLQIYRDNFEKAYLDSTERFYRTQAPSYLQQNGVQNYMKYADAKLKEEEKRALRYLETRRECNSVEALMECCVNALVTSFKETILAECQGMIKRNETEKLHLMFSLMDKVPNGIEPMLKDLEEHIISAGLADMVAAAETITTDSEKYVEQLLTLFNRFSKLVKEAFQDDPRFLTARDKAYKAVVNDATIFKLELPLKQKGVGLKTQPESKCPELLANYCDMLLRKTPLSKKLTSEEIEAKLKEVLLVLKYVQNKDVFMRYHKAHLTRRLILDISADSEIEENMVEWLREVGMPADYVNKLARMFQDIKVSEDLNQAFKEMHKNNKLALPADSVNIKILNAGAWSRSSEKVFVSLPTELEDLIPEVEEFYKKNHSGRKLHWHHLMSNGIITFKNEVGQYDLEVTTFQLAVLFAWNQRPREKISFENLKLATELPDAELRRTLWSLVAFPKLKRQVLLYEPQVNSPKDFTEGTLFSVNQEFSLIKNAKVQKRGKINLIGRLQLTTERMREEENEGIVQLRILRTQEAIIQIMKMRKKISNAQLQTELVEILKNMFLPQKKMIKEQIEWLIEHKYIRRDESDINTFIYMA

compound: c1cn2cc(-c3ccc4cn[nH]c4c3)nc(Nc3ccc(N4CCOCC4)cc3)c2n1 [entospletinib]; assay: log2 fold change, soluble protein after heating vs DMSO (PISA); higher = thermal stabilisation; K562 cells, 10 uM, 30 min; active = over 0.2 and 3.5 SD of the protein, either way, in both replicates (recomputed)
How it was run: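 Soluble protein was quantified by TMTpro 16plex LC-MS/MS after channel sums were equalised. It was obtained as the supernatant after 21,000xg for 90 min from pooled aliquots of K562 cells (2×10^6 cells/mL, 10 μM compound, 30 min) heated for 3 min across 48°C-58°C and extracted in PBS with 0.5% NP-40 at 4°C. Thermal stability values are relative to control samples and come from duplicates. They are given as log2 fold changes.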

log2 fold change, inactive:
CTPS1 (UniProt P17812) -0.034, CYHR1 (UniProt E9PJD7) -0.003, CTIF isoform 2 (UniProt O43310) 0.165, DCK (UniProt P27707) -0.027, DCAF7 (UniProt P61962) 0.029, DCTN3 (UniProt O75935) -0.022, DCUN1D4 isoform 3 (UniProt Q92564) -0.117, DAP (UniProt P51397) 0.067, CSPG5 (UniProt O95196) 0.197, CSTF1 (UniProt Q05048) -0.021, CTNNA2 (UniProt P26232) -0.05, DCP1A (UniProt Q9NPI6) 0.063, CYREN (UniProt Q9BWK5) -0.144, CST3 (UniProt P01034) -0.005, CYB5A (UniProt P00167) 0.025, CYFIP2 (UniProt Q96F07) 0.026, CTNNA1 isoform 2 (UniProt P35221) -0.032, CYP2R1 (UniProt Q6VVX0) 0.012, D2HGDH (UniProt Q8N465) 0.028, CYSTM1 (UniProt Q9H1C7) -0.081, CSRP3 (UniProt P50461) -0.058, CWC25 (UniProt Q9NXE8) -0.055, CYP20A1 (UniProt Q6UW02) -0.087, CTR9 (UniProt Q6PD62) 0.321, DAGLB (UniProt Q8NCG7) 0.001, CTU2 (UniProt Q2VPK5) 0.036, CTBP2 isoform 2 (UniProt P56545) -0.073, CUL5 (UniProt Q93034) -0.017, CWC15 (UniProt Q9P013) 0.079
